Test results reported in US20260183367A1.
These are yes or no findings as the source states them, for the method shown. In cells and extracts the contact can be indirect. Some results given as binding are weak or reduced against the parent protein; the word gives no strength. Sequences can lack the tags named with a protein.

Molecular target: GFP-TDP-43-mNLS (UniProt Q13148)
Experiment: co-immunoprecipitation from HEK293 cells, immunoblot

binding	Binder
binds	CSVRDWIVKHVNTNPLCDLTPIFKDYEKYLANIEQQ (peptide, not shown: large carriers) [mCherry-tagged Nup50 aa165-200]
binds	LAALNCSVRDWIVKHVNTNPLCDLTPIFKDYEKYLA (peptide, not shown: large carriers) [mCherry-tagged Nup50 aa160-195]
